Record: PubChem BioAssay AID504804 (Drosophila RNAi Screening Center, 2011)
Aim: 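Knock-downs shielding fly cells from apoptosis caused by DNA damage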 (primary screen). Cell system: Drosophila Kc cells. Reagents: long dsRNA against Drosophila genes, 0.5 µg dsRNA per well. Duration: 96 h (48 h knock-down, then 48 h drug). Conditions: doxorubicin 5 µg/ml for 48 h, added 48 h after dsRNA. Measurement: 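Viability measured as cellular ATP by luminescence after 48 h knock-down then 48 h doxorubicin at 5 µg/ml; unnormalised plate counts for each replicate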. Reading the numbers: raw ATP luminescence: higher = more viable cells, protection from doxorubicin. Hit rule: 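Active when both duplicate wells lie at least 2 SD above the plate mean and protection is confirmed by rescreening and independent dsRNAs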.
The screen tested about 19,000 reagents; this is an unselected part of those that have a named target and a result. Of all reagents, 47 (0.25%) got an active call. 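Signals are raw, not normalised; exact z-scores behind calls not deposited; actives needed confirmation, so some wells reaching 2 SD are inactive.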 Unmarked entries are inactive. A plus sign joins genes that one reagent is predicted to hit.

With Atg12 [DRSC09803], how do the results read?
raw ATP luminescence, replicate 1: 69097; raw ATP luminescence, replicate 2: 72387

Which result is listed for Pen [DRSC03396]?
raw ATP luminescence, replicate 1: 1.01e5; raw ATP luminescence, replicate 2: 70777

For Nup160 + RfC38 [DRSC01997], how do the results read?
raw ATP luminescence, replicate 1: 1.15e5; raw ATP luminescence, replicate 2: 71927

For Csp [DRSC11860], what does the deposit list?
raw ATP luminescence, replicate 1: 19270; raw ATP luminescence, replicate 2: 23190

With zda [DRSC06936], how do the results read?
raw ATP luminescence, replicate 1: 66177; raw ATP luminescence, replicate 2: 46367

For Ubc7 [DRSC20299], what does the deposit list?
raw ATP luminescence, replicate 1: 3.45e5; raw ATP luminescence, replicate 2: 2.91e5

For ckn [DRSC06149], how do the results read?
raw ATP luminescence, replicate 1: 64437; raw ATP luminescence, replicate 2: 64417

How did the screen score CG11000 [DRSC12158]?
raw ATP luminescence, replicate 1: 78703; raw ATP luminescence, replicate 2: 62617

For CG18063 [DRSC01968], how do the results read?
raw ATP luminescence, replicate 1: 78057; raw ATP luminescence, replicate 2: 73507

How did the screen score His3.3B [DRSC17773]?
raw ATP luminescence, replicate 1: 3.00e5; raw ATP luminescence, replicate 2: 2.71e5

Which result is listed for His3.3B [DRSC18673]?
raw ATP luminescence, replicate 1: 3.19e5; raw ATP luminescence, replicate 2: 2.92e5

With CG32679 [DRSC17644], how do the results read?
raw ATP luminescence, replicate 1: 1.72e5; raw ATP luminescence, replicate 2: 1.87e5

With Dscam3 [DRSC14525], what does the deposit list?
raw ATP luminescence, replicate 1: 63770; raw ATP luminescence, replicate 2: 65880

Which result is listed for Dscam3 [DRSC16376]?
raw ATP luminescence, replicate 1: 73250; raw ATP luminescence, replicate 2: 65110

For CG34242 [DRSC09185], how do the results read?
raw ATP luminescence, replicate 1: 1.57e5; raw ATP luminescence, replicate 2: 1.40e5

What did the screen give for CG17145 [DRSC10247]?
raw ATP luminescence, replicate 1: 55690; raw ATP luminescence, replicate 2: 66437

For ArgRS-m [DRSC14186], how do the results read?
raw ATP luminescence, replicate 1: 61047; raw ATP luminescence, replicate 2: 51030

What did the screen give for RpL32 [DRSC16835]?
raw ATP luminescence, replicate 1: 37450; raw ATP luminescence, replicate 2: 35050

What is on record for Opbp [DRSC04966]?
raw ATP luminescence, replicate 1: 43793; raw ATP luminescence, replicate 2: 43690

Just “raw ATP luminescence, replicate 2”, for 2 of the entries above:
His3.3B [DRSC17773]	2.71e5
His3.3B [DRSC18673]	2.92e5
